The target in experiment [1] is Runx1 (mouse (endogenous in spleen and bone marrow cells)) (UniProt Q03347). The experiment in a line: co-IP; reciprocal IPs of endogenous Phf6 and Runx1, mouse spleen and bone marrow protein extracts; IgG control; western blot. For orientation: A western blot detects proteins with antibodies after separation by electrophoresis.
In experiment [2] the target is RUNX1 (human (endogenous in THP-1)) (UniProt Q01196). The experiment in a line: co-IP; endogenous proteins, THP-1 nuclear protein extracts; agarose-conjugated anti-PHF6 or anti-RUNX1 antibody, IgG control; 4 °C overnight, five washes of 1x PBS with 1% NP-40; western blot.
The target in experiment [3] is wild-type RUNX1 (primary AML samples) (human (endogenous in primary AML cells)) (UniProt Q01196). The experiment in a line: co-IP; IP and western blot of primary AML samples with wild-type RUNX1 or with a Runt domain mutation.

Chains of the proteins cited; added tags and fusions are not shown.
UniProt Q03347: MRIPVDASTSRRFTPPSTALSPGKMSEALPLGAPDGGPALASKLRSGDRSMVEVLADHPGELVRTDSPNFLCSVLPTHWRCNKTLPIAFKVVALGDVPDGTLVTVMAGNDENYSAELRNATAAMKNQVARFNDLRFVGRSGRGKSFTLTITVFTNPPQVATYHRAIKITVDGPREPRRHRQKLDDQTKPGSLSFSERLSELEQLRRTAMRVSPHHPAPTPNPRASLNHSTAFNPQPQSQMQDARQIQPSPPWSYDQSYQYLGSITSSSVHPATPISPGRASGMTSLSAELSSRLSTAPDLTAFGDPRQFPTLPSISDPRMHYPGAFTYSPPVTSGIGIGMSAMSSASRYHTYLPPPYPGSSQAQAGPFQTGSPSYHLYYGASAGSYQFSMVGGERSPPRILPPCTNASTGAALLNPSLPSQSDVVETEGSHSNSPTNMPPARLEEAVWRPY
UniProt Q01196: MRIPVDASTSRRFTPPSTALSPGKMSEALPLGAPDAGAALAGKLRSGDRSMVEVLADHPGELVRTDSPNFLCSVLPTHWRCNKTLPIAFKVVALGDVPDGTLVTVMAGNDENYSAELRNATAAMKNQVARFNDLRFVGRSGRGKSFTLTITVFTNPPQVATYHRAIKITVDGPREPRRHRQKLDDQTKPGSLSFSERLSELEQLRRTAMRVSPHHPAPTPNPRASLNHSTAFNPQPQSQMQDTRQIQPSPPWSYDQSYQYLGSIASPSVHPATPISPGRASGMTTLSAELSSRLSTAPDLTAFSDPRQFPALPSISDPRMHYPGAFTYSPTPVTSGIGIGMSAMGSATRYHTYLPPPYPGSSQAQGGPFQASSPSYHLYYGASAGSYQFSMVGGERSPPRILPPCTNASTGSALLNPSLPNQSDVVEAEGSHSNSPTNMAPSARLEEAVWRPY

Results are given in words; binding and its absence hold for the method and conditions named. In cells and extracts the contact can be indirect. Some results given as binding are weak or reduced against the parent protein; the word gives no strength.

For three molecules, binding results are on record in article PMC10901781.

B1: Phf6 (protein, UniProt Q9D4J7 1-364)
chain: MSSSIEQKKGSTRQRKCGFCKSNRDKECGQLLISENQKVAAHHKCMLFSSALVSSHSDNESLGGFSIEDVQKEIKRGTKLMCSLCHCPGATIGCDVKTCHRTYHYHCALHDKAQIREKPSQGIYMVYCRKHKKTAHNSEADLEESFNEHELEPSSPKTKKKSRKGRPRKTNLKGLPEDSRSTSSHGTDEMESSSYRDRSPHRSSPNDTRPKCGFCHVGEEENEARGKLHIFNAKKAAAHYKCMLFSSGTVQLTTTSRAEFGDFDIKTVLQEIKRGKRMKCTLCSQPGATIGCEIKACVKTYHYHCGVQDKAKYIENMSRGIYKLYCKNHSGNDERDEEDEERESKSRGRVAIDQQLTQQQLNGN
For B1, the binding result in experiment [1] is “binds”.

B2: PHF6 (protein, UniProt Q8IWS0 1-365)
chain: MSSSVEQKKGPTRQRKCGFCKSNRDKECGQLLISENQKVAAHHKCMLFSSALVSSHSDNESLGGFSIEDVQKEIKRGTKLMCSLCHCPGATIGCDVKTCHRTYHYHCALHDKAQIREKPSQGIYMVYCRKHKKTAHNSEADLEESFNEHELEPSSPKSKKKSRKGRPRKTNFKGLSEDTRSTSSHGTDEMESSSYRDRSPHRSSPSDTRPKCGFCHVGEEENEARGKLHIFNAKKAAAHYKCMLFSSGTVQLTTTSRAEFGDFDIKTVLQEIKRGKRMKCTLCSQPGATIGCEIKACVKTYHYHCGVQDKAKYIENMSRGIYKLYCKNHSGNDERDEEDEERESKSRGKVEIDQQQLTQQQLNGN
With B2, the binding entry in experiment [2] is reported as “binds”.

B3: PHF6 (primary AML samples) (protein, UniProt Q8IWS0 1-365)
chain: MSSSVEQKKGPTRQRKCGFCKSNRDKECGQLLISENQKVAAHHKCMLFSSALVSSHSDNESLGGFSIEDVQKEIKRGTKLMCSLCHCPGATIGCDVKTCHRTYHYHCALHDKAQIREKPSQGIYMVYCRKHKKTAHNSEADLEESFNEHELEPSSPKSKKKSRKGRPRKTNFKGLSEDTRSTSSHGTDEMESSSYRDRSPHRSSPSDTRPKCGFCHVGEEENEARGKLHIFNAKKAAAHYKCMLFSSGTVQLTTTSRAEFGDFDIKTVLQEIKRGKRMKCTLCSQPGATIGCEIKACVKTYHYHCGVQDKAKYIENMSRGIYKLYCKNHSGNDERDEEDEERESKSRGKVEIDQQQLTQQQLNGN
On to B3, for which the binding result in experiment [3] is reported as “binds”.
